The values below come from publication PMC7648012.

No constants are given. Whether binding was seen depends on the method and setting. In cells and extracts the contact can be indirect. Binding can be weak; no strength is given. Sequences can lack the tags named with a protein.

This assay deals with T1, 3×FLAG-LSH (wild type) (human) (UniProt Q9NRZ9).
T1 sequence: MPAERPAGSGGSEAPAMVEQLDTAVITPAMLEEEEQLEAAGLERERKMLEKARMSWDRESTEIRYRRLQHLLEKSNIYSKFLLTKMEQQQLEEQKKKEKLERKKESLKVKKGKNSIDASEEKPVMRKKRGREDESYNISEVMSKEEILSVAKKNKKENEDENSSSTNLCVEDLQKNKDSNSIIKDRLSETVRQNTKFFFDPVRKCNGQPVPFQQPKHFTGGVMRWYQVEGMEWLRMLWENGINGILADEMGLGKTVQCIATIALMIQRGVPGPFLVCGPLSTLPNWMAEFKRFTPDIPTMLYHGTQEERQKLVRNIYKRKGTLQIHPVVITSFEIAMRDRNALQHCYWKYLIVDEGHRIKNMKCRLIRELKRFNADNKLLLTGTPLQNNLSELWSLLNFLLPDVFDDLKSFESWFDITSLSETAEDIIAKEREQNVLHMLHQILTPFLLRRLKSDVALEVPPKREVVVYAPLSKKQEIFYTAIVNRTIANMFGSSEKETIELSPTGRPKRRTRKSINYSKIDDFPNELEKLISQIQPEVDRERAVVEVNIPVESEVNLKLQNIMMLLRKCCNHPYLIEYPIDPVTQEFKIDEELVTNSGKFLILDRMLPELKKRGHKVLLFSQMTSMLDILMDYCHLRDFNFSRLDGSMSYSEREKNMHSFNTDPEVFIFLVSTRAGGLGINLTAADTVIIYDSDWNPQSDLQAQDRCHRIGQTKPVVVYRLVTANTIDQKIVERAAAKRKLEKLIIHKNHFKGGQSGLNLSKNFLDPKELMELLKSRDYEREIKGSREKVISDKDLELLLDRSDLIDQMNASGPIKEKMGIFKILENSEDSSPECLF
In words: co-IP; Flag-IP from lysate of U2OS cells stably expressing 3×FLAG-LSH (WT or ICF4 mutant); IP lysis buffer 25 mM Tris-HCl pH 7.4, 150 mM NaCl, 1% NP-40, 1 mM EDTA, 5% glycerol; 4 °C overnight; Protein G magnetic beads; western blot.

With macroH2A1 (from UniProt O75367-1), the binding entry is listed as “binds”.
